Source: the supplement of paper PMC3334620
In all, about 33,000 sequences were measured (“E-score (-0.5 to 0.5)”: median about -0.0014, highest 2% from about 0.25 on). Some of the results follow.

biological target: T1, Cad1 (UniProt P24813); experiment: PBM E-score (8-mer binding enrichment) (E-score (-0.5 to 0.5)); higher = stronger / more preferred TF binding; settings: protein concentration: 100 nM; construct: GST-full length
T1 sequence: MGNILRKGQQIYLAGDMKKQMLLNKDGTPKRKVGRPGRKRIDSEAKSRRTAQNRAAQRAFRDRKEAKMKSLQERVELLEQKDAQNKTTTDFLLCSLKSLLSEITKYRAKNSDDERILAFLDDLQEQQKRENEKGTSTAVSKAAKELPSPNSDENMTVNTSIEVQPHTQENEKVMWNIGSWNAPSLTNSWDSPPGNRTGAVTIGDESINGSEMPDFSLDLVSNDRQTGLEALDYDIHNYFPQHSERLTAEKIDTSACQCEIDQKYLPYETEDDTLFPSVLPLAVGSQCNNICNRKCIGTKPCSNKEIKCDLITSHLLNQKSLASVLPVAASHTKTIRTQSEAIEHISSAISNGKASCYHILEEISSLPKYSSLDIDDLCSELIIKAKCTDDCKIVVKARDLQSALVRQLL
In short: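 Bound GST-tagged yeast transcription factors, applied at about 100-200 nM to double-stranded universal all-10-mer Agilent arrays, were detected with fluorescent anti-GST. Scans were normalised with masliner. A modified Wilcoxon-Mann-Whitney statistic, the E-score, was assigned to each ungapped eight-base word pooled with its reverse complement by the Universal PBM Analysis Suite.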

Sequence	PBM E-score
GGAGGCAA	-0.162
AGGTCGAG	-0.0283
GTGTCCCA	-0.0626
ATCAGGGG	-0.231
AGAAGGGC	-0.137
GGCACATA	0.132
GCGCAATA	0.121
ACTGATCT	0.0639
ACCTCCAC	-0.0904
GAGGACAC	0.0722
CGTTAGAG	-0.0495
ATGTGGTA	0.0831
GCGAGAGA	-0.0838
GCTATCCA	-0.144
ACATGCGA	-0.189
GCGGCAAC	0.13
AGGATAGG	-0.127
GAGTTATA	0.0281
GGCGAGGA	-0.0516
TCGTCAGA	-0.0952
GCCATACC	-0.0901
CGGACTAG	-0.205
CCCTTTTA	-0.221
CGTCTTTA	0.163
GATTTTGC	-0.15

Sequence	PBM E-score
GCGACACC	0.0132
ACCCCTTC	-0.268
CATCGCCG	-0.0925
CCACCGGC	-0.264
CCCTTGCC	-0.0937
CCGGGAAC	-0.164
ATTCTTAA	0.00046
ATCGGGTC	0.0992
CAGCACTC	0.0324
GGACTGCC	-0.0722
ATTAGCAC	0.0946
CTACCCCC	-0.444
GAGCCGCA	0.00295
CCGACCGA	-0.179
TCGCGGAA	-0.0387
GAATCTGC	0.014
GGACTATA	0.0747
AGGTACCG	0.0602
CGAATTGC	0.0993
GAGCTTGC	-0.048
ACAATTGG	-0.0197
AACATTTC	0.101
AAGTAGCC	-0.208
GACGTGGA	0.0437
AGAGAGAC	-0.258

Sequence	PBM E-score
GCGAATTA	0.176
CTTGCGTC	-0.00633
TAAAAGGA	-0.0572
GGTAATCA	0.203
CCGACTCC	-0.0257
AAAGAAGC	0.0936
CCTCCTTC	-0.165
CCAAGCGC	0.166
AAATCCAT	0.234
AGCTACAG	-0.286
ATGTGAAT	0.133
AGTTTACA	0.0849
ACAGCGCA	0.0437
ATCCGGCG	0.169
ATACGGAT	0.102
AAGATCAT	0.00621
CTAAGTTA	-0.0283
CCTCTGAC	-0.0669
CGAGCCAC	-0.191
CAACAACC	0.053
CGCGCAAG	0.217
TCCTCAGA	-0.108
ACATTTTG	0.133
ACGGTGTG	0.0119
CCGAATAA	0.172

Sequence	PBM E-score
CCACAAAG	0.0271
ACCCACAT	0.00823
GTACGCTA	0.0478
ACAGAAGA	0.0872
AGAATCCG	0.163
AATCTTCT	-0.118
TCGGGAGA	-0.0809
CAAGGAGG	0.0058
CTGTCTTA	0.0654
AGACACGG	0.0215
CGACTAGC	0.0526
ATGCCCCA	-0.0857
AGCCGAGA	-0.0623
GGCACCCC	-0.243
AACATCTG	-0.0437
CTGTGACA	0.209
CCGCTGCA	0.0759
ATCAGGAA	0.0741
ATAGACGC	0.119
CTGCGAAG	-0.2
AACAGAGC	-0.167
CAGGCCCC	-0.277
CATTCCGG	0.00395
CCAATATA	-0.0928
GCCATTAC	0.0311

Sequence	PBM E-score
AGGGCTTC	-0.114
ATCAAGAT	0.0653
GGCCGATA	-0.0403
ACCTATCG	0.081
ATGGCTTA	0.144
TTCACGAA	0.00862
ACAAGGGG	-0.219
TACTTTAA	-0.165
AAGCTAGG	-0.046
CAGCAATA	0.188
CCCCAGTC	-0.273
GCTATAGC	-0.23
AATAAGCT	0.234
ACCACCAT	-0.135
GCTTGTTA	0.0383
GCCCTTTA	-0.279
CGTCTTGC	-0.0811
GATTTAAA	-0.0737
AGGGGATG	-0.0803
AGATGCCG	-0.0943
AAGTAGGC	0.0519
ACGATGGA	0.042
GACTAGCC	-0.139
ACCGCGAG	-0.00282
TTAGTAAA	0.339

Sequence	PBM E-score
CGGCCCAA	-0.111
CGGAACCA	0.23
ATTGATGA	0.0891
CATCTTAC	0.0418
ACAACTAT	0.0919
CCCATGCA	-0.029
TCTATAAA	0.111
ATAGTCGA	0.215
CGGATATC	0.167
ACACTAGA	0.142
AGCATAGG	-0.145
AAACCGAG	-0.0261
ATGACACG	0.114
AGCGTCGC	0.098
AGGACGGA	-0.123
GCATAATA	0.249
AAGCAGGG	-0.0301
CCGGGCGA	-0.17
AGTGTAAT	0.0742
CACTAAAC	0.0896
AAACGGCG	0.17
ACAATTTG	-0.0159
AAACTGTA	0.105
GGTGGGGA	0.173
CTGTCCAC	-0.00922

Sequence	PBM E-score
AAATATAA	0.247
CCACGAGG	-0.103
ACTACAGC	-0.201
TCCGGAAA	0.252
CGCACCCG	0.168
TCGACGAA	0.12
GTTAGGAA	0.0362
GCCAGCAC	-0.0561
CAACTACC	-0.14
CGAGCGCA	0.198
TAGACGCA	-0.0612
ACTTAAAC	0.126
ATGCCCGC	-0.0876
CACATGAG	-0.186
CATGAAAG	-0.0263
CATACGGA	0.0805
CCGGGCGC	-0.07
AGCGAGGA	-0.0275
GCTGCAAC	0.124
GCGCAAAC	0.101
ATGTGTTC	0.0917
AGGGCAAA	0.0746
GGGCAGAA	0.123
GCAGAGGC	-0.185
AAATAACG	0.184

Sequence	PBM E-score
ATCGCCTG	-0.13
CGGGCGAG	0.0379
AGACGCAA	0.116
CTCGTAGC	0.0352
ATCTGTTC	-0.075
CACTTTAG	-0.106
ATTGAGAC	0.0904
GGATGTAA	0.0961
GGATTCTA	0.0766
ATCGCAGG	-0.0774
AGCAGATC	0.256
ATATTTGC	0.306
GAGCGTGC	0.0985
AGACTTGA	-0.0266
GCATGCGC	0.126
AGTACAAT	0.224
AACACGCA	0.0682
CGTCTCCC	-0.163
TGTTGGAA	0.192
CATGCCCC	-0.0844
GGCTCAAC	-0.143
AGCGGGTA	-0.0961
CCGAAATC	0.00772
CCCTTACG	-0.22
CGTCTTAC	-0.00873

Sequence	PBM E-score
TGTGCAAA	-0.0213
CATATCTA	0.142
AGTGTCGG	0.04
CCTGTACG	-0.107
CAATCGGA	0.259
CACGTCGG	0.00033
CACGCCAA	-0.0204
ACGTCAGT	0.0108
GACGTATA	-0.0828
AGTGGTTC	0.00281
TTACCAAA	0.115
GATGAGGC	-0.17
ATAAAAGC	0.102
CCGATCGC	0.0503
AGAGAATC	-0.0473
CGAACACA	0.232
TCATCGAA	0.0816
AGTATGAT	0.195
GGGAGATA	-0.0835
GGATTGCA	0.044
AAAGGTGA	-0.0406
ACGTTTTG	-0.0551
CGCGGTTA	-0.00191
GGCGAGCA	-0.00035
CCGGTGAG	-0.145

Sequence	PBM E-score
GTCTAAAA	-0.144
GCTAATAA	0.00494
AGAAAAGG	-0.131
GATGATAC	-0.0174
TACATACA	0.0815
ATAAACGG	0.223
AATCGTGA	0.0886
CCTATCCG	-0.0612
CGGCGACG	0.089
CGCGTTAA	0.0858
GCCCGCGC	0.244
AATCGTCA	0.135
CAGGCAGG	-0.102
ACCGTAGG	-0.311
CACCCCTG	-0.288
CAACCATA	0.0087
CTCAGTCC	-0.0538
CGCGTGCA	0.0727
CGAATCAA	0.224
CAGCTATA	-0.0488
GCGTAAGC	0.215
CCGTGTAG	-0.0745
ATGCATAG	-0.0645
CGCTAAGA	0.068
GCCTCTAC	-0.289

Sequence	PBM E-score
GAAGCGCA	0.0481
AGCCCTTA	-0.11
GTCGTAAC	-0.107
ACCGATAA	0.196
AGGGTCAA	0.0208
CCAGCAGC	-0.103
GGTAATAC	0.111
ATAAGTTA	0.156
AGCTCTAC	-0.145
CTGTAGTC	-0.0916
ACTAGCAG	-0.038
CCGAGAAA	0.193
ATGCTGCC	0.0614
CCTTGCCA	-0.117
ATACTAAG	0.105
GAATTCCC	-0.0879
AATTGCTC	-0.0256
ACTGATCA	0.0707
ATGACCGC	-0.15
CTTTCCGA	0.0276
CGCGAACA	0.186
CATCGCAG	-0.0654
GCCGTCCA	0.163
AGACGCTG	-0.11
GGGTGTTA	0.0307

Sequence	PBM E-score
CCGCTTTA	0.0678
GCCCGAAA	0.0495
ATAGATTA	0.18
AACGACAA	0.134
AAATGATG	0.0607
GACGGAGC	-0.197
ACAATCAA	0.158
CCCTAGCG	-0.265
AATGCTCA	-0.0337
CCGTTATC	0.00035
AGCGAAGG	-0.0765
CTCCCTAA	-0.0842
CACATTCG	0.0042
ATTACCGA	0.102
AGTCCACG	-0.113
ATCGGTGA	0.0553
AGATTATC	0.00491
CGCCCCTC	-0.332
CACGGGTC	-0.122
GGATTCCA	0.112
GACGGTAC	0.0123
ATCACATA	0.174
CACCATGA	-0.0956
CAGATCTA	0.00832
GATGAGCC	-0.0972

Sequence	PBM E-score
ATGATAAC	0.0889
GGCTTCCA	-0.241
ACAACGTC	-0.0572
ATGCAACG	0.0514
AGGTATGA	-0.0176
CCAGAACG	0.0801
ACCGGTCA	0.0275
ATCGCCCG	-0.0312
AGCAGGCT	-0.144
AATTGCCC	0.097
CTGACTTA	0.201
ACTTCTCT	-0.179
ACTGTCAA	-0.0813
CTTGAGTC	-0.118
ATAGAGCG	-0.162
ATGGTGCA	-0.0972
CTTACATC	-0.00465
GAGACGGA	0.0596
TACCGTGA	-0.118
CAGCTGTA	-0.0293
CACCGGTA	-0.13
TATTCGAA	0.112
CTAGTCCC	-0.194
AATGTACT	0.111
TGACGGCA	-0.0914

Sequence	PBM E-score
CAACAGAC	0.125
ACGGCTCG	0.0865
GTCAACAC	0.169
CAGAAAAC	0.0678
GGTACACC	-0.163
AATAGAAT	0.00914
ATCACTAG	-0.0684
CACTGGTA	-0.0465
CCATCGTC	-0.0595
GTACGCAC	-0.0801
GAGTCCAA	-0.0415
AAGAACCA	-0.00253
AATACGCT	0.141
AATTCAGT	-0.051
CAGGGAAC	-0.0723
TGCGACCA	-0.0148
GGCTCCGA	-0.0167
AAATGTGC	0.201
TCTCGGAA	0.103

91 entries from above, comma-delimited.
Sequence,PBM E-score
GAAGCGCA,0.0481
AGCCCTTA,-0.11
GTCGTAAC,-0.107
ACCGATAA,0.196
AGGGTCAA,0.0208
CCAGCAGC,-0.103
GGTAATAC,0.111
ATAAGTTA,0.156
AGCTCTAC,-0.145
CTGTAGTC,-0.0916
ACTAGCAG,-0.038
CCGAGAAA,0.193
ATGCTGCC,0.0614
CCTTGCCA,-0.117
ATACTAAG,0.105
GAATTCCC,-0.0879
AATTGCTC,-0.0256
ACTGATCA,0.0707
ATGACCGC,-0.15
CTTTCCGA,0.0276
CGCGAACA,0.186
CATCGCAG,-0.0654
GCCGTCCA,0.163
AGACGCTG,-0.11
GGGTGTTA,0.0307
CCGCTTTA,0.0678
GCCCGAAA,0.0495
ATAGATTA,0.18
AACGACAA,0.134
AAATGATG,0.0607
GACGGAGC,-0.197
ACAATCAA,0.158
CCCTAGCG,-0.265
AATGCTCA,-0.0337
CCGTTATC,0.00035
AGCGAAGG,-0.0765
CTCCCTAA,-0.0842
CACATTCG,0.0042
ATTACCGA,0.102
AGTCCACG,-0.113
ATCGGTGA,0.0553
AGATTATC,0.00491
CGCCCCTC,-0.332
CACGGGTC,-0.122
GGATTCCA,0.112
GACGGTAC,0.0123
ATCACATA,0.174
CACCATGA,-0.0956
CAGATCTA,0.00832
GATGAGCC,-0.0972
ATGATAAC,0.0889
GGCTTCCA,-0.241
ACAACGTC,-0.0572
ATGCAACG,0.0514
AGGTATGA,-0.0176
CCAGAACG,0.0801
ATCGCCCG,-0.0312
AATTGCCC,0.097
CTGACTTA,0.201
ACTTCTCT,-0.179
ACTGTCAA,-0.0813
CTTGAGTC,-0.118
ATGGTGCA,-0.0972
CTTACATC,-0.00465
GAGACGGA,0.0596
TACCGTGA,-0.118
CAGCTGTA,-0.0293
CACCGGTA,-0.13
TATTCGAA,0.112
CTAGTCCC,-0.194
AATGTACT,0.111
TGACGGCA,-0.0914
CAACAGAC,0.125
ACGGCTCG,0.0865
GTCAACAC,0.169
CAGAAAAC,0.0678
GGTACACC,-0.163
AATAGAAT,0.00914
ATCACTAG,-0.0684
CACTGGTA,-0.0465
CCATCGTC,-0.0595
GTACGCAC,-0.0801
GAGTCCAA,-0.0415
AAGAACCA,-0.00253
AATACGCT,0.141
AATTCAGT,-0.051
CAGGGAAC,-0.0723
TGCGACCA,-0.0148
GGCTCCGA,-0.0167
AAATGTGC,0.201
TCTCGGAA,0.103
